Reference: the supplement of paper PMC12067093, “Discovery and optimisation of a covalent ligand for TRIM25 and its application to targeted protein ubiquitination” (Chemical Science, 2025)
This is one part of the list.

Chains of the proteins cited; added tags and fusions are not shown. Lines headed by an entry give the natural chain unless they say otherwise; changes in a name come on top.
UniProt O43314: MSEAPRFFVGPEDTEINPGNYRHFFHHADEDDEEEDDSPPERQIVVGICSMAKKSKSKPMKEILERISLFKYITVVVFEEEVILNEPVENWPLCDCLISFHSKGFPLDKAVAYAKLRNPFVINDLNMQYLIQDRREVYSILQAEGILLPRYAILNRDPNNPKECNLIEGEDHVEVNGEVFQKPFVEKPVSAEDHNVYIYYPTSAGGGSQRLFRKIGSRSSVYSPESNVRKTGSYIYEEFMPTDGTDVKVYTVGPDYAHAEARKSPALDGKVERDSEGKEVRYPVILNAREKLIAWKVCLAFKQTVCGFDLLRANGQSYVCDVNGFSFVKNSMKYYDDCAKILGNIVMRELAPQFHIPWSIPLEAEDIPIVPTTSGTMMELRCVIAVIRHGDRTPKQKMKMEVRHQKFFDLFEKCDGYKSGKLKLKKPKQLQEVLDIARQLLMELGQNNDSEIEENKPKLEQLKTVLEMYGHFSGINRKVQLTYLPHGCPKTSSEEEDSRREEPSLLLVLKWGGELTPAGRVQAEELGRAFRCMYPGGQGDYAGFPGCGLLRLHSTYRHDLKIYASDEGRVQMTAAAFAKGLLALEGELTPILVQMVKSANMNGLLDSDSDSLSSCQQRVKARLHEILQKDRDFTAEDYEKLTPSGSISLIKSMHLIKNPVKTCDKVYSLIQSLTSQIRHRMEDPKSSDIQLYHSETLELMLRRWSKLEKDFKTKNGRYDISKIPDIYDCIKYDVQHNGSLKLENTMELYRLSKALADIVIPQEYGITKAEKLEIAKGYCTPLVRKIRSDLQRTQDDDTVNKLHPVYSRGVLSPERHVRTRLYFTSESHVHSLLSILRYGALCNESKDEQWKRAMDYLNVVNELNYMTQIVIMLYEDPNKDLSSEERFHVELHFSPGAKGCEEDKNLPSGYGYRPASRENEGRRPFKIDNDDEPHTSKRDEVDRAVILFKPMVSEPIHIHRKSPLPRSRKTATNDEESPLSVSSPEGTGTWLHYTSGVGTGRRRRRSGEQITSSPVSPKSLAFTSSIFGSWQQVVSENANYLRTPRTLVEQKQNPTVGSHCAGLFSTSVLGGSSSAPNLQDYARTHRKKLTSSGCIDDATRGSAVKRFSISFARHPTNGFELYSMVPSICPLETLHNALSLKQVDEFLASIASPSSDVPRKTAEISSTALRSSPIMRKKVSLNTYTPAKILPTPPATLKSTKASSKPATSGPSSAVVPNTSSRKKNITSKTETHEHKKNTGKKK
UniProt Q8TF05: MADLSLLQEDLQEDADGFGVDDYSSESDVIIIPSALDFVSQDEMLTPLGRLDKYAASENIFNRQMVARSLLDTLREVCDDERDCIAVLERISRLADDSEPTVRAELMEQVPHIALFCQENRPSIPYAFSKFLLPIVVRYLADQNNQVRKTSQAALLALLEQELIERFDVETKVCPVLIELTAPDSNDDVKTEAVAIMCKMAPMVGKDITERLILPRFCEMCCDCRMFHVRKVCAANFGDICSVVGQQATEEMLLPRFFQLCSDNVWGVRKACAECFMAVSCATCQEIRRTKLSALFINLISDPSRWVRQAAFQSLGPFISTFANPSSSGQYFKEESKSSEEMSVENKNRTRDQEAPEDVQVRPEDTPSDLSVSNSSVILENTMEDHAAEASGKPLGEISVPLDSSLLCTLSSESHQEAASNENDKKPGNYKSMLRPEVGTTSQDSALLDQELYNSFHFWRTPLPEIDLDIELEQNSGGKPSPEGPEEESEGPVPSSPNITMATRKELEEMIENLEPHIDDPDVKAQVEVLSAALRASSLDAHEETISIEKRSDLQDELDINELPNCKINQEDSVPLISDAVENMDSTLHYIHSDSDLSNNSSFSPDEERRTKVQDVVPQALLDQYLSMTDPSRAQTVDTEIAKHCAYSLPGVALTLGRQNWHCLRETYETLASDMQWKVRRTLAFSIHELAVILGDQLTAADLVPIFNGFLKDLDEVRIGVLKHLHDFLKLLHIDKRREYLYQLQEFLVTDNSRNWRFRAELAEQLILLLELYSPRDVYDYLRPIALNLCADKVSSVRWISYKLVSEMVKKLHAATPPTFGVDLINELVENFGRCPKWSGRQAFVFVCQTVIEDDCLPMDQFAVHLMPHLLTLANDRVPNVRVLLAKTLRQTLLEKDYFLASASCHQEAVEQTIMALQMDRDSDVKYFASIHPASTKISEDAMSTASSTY
UniProt P53041: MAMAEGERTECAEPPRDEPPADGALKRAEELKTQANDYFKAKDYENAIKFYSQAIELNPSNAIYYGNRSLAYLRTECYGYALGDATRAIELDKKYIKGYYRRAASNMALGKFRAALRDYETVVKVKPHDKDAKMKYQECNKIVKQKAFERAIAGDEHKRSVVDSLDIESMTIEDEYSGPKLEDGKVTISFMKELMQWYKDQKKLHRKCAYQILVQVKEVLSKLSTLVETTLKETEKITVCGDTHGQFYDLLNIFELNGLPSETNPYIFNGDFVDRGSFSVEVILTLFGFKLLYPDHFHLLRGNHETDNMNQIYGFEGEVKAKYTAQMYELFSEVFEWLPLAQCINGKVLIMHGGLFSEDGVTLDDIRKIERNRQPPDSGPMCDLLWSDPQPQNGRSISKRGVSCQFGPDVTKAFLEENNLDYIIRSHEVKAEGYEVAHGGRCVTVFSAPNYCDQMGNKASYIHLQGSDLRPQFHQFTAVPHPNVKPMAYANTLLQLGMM
UniProt Q9HCU5: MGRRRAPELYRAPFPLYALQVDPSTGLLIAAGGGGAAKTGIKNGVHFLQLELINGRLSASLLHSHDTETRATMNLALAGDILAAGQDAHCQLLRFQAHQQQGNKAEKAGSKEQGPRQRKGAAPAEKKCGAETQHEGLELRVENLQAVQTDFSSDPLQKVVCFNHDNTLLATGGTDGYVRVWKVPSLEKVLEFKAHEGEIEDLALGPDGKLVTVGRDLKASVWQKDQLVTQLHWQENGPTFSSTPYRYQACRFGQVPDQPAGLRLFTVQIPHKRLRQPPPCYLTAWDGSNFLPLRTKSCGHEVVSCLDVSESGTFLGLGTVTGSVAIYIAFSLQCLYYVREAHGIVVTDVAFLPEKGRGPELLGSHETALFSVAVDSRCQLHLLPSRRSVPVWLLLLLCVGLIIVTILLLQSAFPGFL
UniProt Q9Y3C6: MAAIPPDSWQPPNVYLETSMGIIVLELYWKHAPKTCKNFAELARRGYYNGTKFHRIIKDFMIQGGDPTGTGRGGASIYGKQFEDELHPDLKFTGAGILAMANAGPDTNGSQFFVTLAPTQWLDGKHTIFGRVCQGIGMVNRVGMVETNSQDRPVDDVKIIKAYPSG
UniProt P48147: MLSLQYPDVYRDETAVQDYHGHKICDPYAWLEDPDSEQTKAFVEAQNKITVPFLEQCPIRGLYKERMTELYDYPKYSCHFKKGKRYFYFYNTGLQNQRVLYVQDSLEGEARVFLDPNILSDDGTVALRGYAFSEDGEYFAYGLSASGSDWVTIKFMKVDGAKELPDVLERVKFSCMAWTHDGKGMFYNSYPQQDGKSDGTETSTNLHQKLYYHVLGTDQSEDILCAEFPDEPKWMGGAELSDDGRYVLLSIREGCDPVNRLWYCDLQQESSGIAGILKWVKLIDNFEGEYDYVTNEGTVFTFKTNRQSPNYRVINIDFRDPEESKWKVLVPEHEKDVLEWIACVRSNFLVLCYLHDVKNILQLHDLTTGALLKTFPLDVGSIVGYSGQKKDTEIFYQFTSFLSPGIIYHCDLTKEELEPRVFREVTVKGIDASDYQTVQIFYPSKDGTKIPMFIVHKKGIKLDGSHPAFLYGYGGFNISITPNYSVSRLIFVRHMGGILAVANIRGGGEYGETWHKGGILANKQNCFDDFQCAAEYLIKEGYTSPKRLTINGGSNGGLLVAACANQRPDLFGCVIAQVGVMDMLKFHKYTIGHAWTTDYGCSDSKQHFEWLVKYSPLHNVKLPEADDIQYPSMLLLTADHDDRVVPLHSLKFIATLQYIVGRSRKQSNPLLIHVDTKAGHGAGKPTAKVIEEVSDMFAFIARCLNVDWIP
UniProt P30153, whole entry, looked up: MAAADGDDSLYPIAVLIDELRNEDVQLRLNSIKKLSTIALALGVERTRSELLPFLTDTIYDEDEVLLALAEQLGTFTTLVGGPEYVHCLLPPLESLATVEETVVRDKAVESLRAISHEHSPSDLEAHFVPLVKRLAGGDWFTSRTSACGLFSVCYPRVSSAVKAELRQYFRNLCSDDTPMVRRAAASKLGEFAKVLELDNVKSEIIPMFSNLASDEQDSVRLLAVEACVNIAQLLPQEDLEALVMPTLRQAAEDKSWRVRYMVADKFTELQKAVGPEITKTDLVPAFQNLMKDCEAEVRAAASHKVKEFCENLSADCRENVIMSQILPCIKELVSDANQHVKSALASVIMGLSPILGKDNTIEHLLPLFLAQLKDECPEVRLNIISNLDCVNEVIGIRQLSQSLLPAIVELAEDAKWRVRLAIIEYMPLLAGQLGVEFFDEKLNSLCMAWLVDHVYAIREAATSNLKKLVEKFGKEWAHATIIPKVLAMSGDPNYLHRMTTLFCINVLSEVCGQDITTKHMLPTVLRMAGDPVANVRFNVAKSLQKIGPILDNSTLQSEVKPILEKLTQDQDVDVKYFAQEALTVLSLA
UniProt Q9UPN7: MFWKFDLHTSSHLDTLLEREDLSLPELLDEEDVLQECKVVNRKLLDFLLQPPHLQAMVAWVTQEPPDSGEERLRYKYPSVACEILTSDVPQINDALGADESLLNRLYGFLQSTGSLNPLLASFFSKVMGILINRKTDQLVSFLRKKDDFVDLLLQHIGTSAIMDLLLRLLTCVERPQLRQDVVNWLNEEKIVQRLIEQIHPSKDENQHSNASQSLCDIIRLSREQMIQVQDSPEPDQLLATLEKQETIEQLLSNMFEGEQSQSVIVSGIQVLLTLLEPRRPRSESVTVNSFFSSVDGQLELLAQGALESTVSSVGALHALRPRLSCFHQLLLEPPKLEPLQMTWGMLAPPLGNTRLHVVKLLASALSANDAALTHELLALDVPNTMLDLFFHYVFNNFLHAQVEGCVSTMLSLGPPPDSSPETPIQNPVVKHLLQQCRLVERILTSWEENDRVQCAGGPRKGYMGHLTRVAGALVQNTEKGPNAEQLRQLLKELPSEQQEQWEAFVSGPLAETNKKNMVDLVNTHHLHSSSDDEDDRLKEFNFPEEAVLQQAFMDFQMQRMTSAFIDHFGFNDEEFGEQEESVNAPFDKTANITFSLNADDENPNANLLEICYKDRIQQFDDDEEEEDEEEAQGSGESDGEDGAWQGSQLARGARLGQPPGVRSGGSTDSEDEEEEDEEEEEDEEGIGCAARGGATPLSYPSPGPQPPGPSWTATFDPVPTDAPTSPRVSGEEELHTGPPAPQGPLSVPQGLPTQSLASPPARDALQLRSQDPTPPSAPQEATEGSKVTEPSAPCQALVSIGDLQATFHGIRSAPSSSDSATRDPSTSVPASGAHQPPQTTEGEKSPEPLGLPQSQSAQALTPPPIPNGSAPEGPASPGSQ
UniProt Q96BP3: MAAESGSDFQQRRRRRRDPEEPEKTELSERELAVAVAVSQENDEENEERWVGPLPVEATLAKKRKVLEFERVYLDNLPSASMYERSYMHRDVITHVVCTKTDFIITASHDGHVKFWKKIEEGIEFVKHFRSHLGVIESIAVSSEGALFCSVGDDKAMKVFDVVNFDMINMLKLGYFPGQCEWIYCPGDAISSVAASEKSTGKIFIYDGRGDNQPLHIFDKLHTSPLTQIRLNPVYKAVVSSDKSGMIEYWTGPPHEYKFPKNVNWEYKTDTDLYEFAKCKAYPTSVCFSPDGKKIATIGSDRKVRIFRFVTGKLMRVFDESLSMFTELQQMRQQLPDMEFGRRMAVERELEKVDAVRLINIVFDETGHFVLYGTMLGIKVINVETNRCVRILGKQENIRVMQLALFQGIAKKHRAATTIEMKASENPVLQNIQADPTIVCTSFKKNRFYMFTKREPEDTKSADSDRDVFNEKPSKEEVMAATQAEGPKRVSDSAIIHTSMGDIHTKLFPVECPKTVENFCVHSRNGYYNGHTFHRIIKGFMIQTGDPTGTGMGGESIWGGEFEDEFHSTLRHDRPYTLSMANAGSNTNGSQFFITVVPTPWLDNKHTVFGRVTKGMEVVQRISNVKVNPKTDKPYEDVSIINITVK
UniProt P32119: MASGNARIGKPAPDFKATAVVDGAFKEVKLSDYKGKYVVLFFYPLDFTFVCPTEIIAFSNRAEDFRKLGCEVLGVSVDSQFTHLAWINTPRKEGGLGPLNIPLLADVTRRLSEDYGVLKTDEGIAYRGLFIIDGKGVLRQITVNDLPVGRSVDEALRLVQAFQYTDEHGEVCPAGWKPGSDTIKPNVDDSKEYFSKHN
UniProt O95685: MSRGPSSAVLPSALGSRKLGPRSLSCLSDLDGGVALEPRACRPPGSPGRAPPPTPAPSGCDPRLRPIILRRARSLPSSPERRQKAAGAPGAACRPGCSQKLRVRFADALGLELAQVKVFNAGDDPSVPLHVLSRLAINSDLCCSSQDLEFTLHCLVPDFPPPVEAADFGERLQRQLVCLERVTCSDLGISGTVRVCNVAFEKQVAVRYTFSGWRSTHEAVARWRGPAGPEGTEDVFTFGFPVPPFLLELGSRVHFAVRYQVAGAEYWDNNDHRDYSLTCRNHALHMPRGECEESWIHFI

Compound: CC1Cc2ccccc2N1C(=O)C1CCCN(C1)C(=O)CCl (mixture of isomers) [TRIM25 ligand 11 (diastereomer mixture)]
Assay: probe-labelled cysteine peptide fold change vs DMSO (competition) (log2 fold change); higher = less target engagement (more negative = stronger competition)
Conditions: THP-1, incubation time: 4 h
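Note: competitive chemoproteomic profiling in live THP-1 cells with an iodoacetamide desthiobiotin (IA-DTB) probe, comparing probe-labelled peptide intensities in compound-treated cells against DMSO-treated controls.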

## PPME1_Q9Y570_238_QCEGITSPEGSK (UniProt Q9Y570)
10 µM
  probe-labelled cysteine peptide fold change: 0.0265
50 µM
  probe-labelled cysteine peptide fold change: -0.209

## PPP4R3A_Q6IN85_180_LLELFHVCEDLENIEGLHHLYEIIK (UniProt Q6IN85)
10 µM
  probe-labelled cysteine peptide fold change: 0.203
50 µM
  probe-labelled cysteine peptide fold change: 0.265

## PPIP5K2_O43314_164_ECNLIEGEDHVEVNGEVFQK (UniProt O43314)
10 µM
  probe-labelled cysteine peptide fold change: 0.141
50 µM
  probe-labelled cysteine peptide fold change: 0.18

## PPP4R1_Q8TF05_198_TEAVAIMCK (UniProt Q8TF05)
10 µM
  probe-labelled cysteine peptide fold change: 0.164
50 µM
  probe-labelled cysteine peptide fold change: 0.158

## PPP5C_P53041_404_RGVSCQFGPDVTK (UniProt P53041)
10 µM
  probe-labelled cysteine peptide fold change: 0.046
50 µM
  probe-labelled cysteine peptide fold change: 0.0884

## PPP3CA_Q08209_228_FKEPPAYGPMCDILWSDPLEDFGNEK (UniProt Q08209)
10 µM
  probe-labelled cysteine peptide fold change: 0.107
50 µM
  probe-labelled cysteine peptide fold change: 0.0161

## PPIP5K2_O43314_615_SANMNGLLDSDSDSLSSCQQR (UniProt O43314)
10 µM
  probe-labelled cysteine peptide fold change: -0.00763
50 µM
  probe-labelled cysteine peptide fold change: 0.0215

## PRC1_O43663_136_LLQEQDQELCEILCMPHYDIDSASVPSLEELNQFR (UniProt O43663)
10 µM
  probe-labelled cysteine peptide fold change: -0.23
50 µM
  probe-labelled cysteine peptide fold change: -0.122

## PREB_Q9HCU5_378_CQLHLLPSR (UniProt Q9HCU5)
10 µM
  probe-labelled cysteine peptide fold change: 0.0563
50 µM
  probe-labelled cysteine peptide fold change: 0.163

## PPIL1_Q9Y3C6_133_VCQGIGMVNR (UniProt Q9Y3C6)
10 µM
  probe-labelled cysteine peptide fold change: 0.108
50 µM
  probe-labelled cysteine peptide fold change: -0.00608

## PPT1_P50897_152+160_CPGESSHICDFIRK (UniProt P50897)
10 µM
  probe-labelled cysteine peptide fold change: -0.276
50 µM
  probe-labelled cysteine peptide fold change: -0.457

## PPIP5K2_O43314_488_KVQLTYLPHGCPK (UniProt O43314)
10 µM
  probe-labelled cysteine peptide fold change: -0.176
50 µM
  probe-labelled cysteine peptide fold change: -0.182

## PREP_P48147_255_EGCDPVNR (UniProt P48147)
10 µM
  probe-labelled cysteine peptide fold change: 0.0406
50 µM
  probe-labelled cysteine peptide fold change: 0.0173

## PPT1_P50897_160_CPGESSHICDFIR (UniProt P50897)
10 µM
  probe-labelled cysteine peptide fold change: 0.053
50 µM
  probe-labelled cysteine peptide fold change: -0.0313

## PPP2R1A_P30153_317_EFCENLSADCR (UniProt P30153)
10 µM
  probe-labelled cysteine peptide fold change: -0.0459
50 µM
  probe-labelled cysteine peptide fold change: -0.0231

## PPP6R1_Q9UPN7_437_HLLQQCR (UniProt Q9UPN7)
10 µM
  probe-labelled cysteine peptide fold change: -0.00543
50 µM
  probe-labelled cysteine peptide fold change: -0.0738

## PPWD1_Q96BP3_98_DVITHVVCTK (UniProt Q96BP3)
10 µM
  probe-labelled cysteine peptide fold change: 0.131
50 µM
  probe-labelled cysteine peptide fold change: 0.214

## PPT1_P50897_45+46_ALQHLDPPAPLPLVIWHGMGDSCCNPLSMGAIK (UniProt P50897)
10 µM
  probe-labelled cysteine peptide fold change: -0.179
50 µM
  probe-labelled cysteine peptide fold change: -0.191

## PPP1CC_P36873_202_RIMRPTDVPDQGLLCDLLWSDPDKDVLGWGENDR (UniProt P36873)
10 µM
  probe-labelled cysteine peptide fold change: 0.028
50 µM
  probe-labelled cysteine peptide fold change: -0.145

## PRDX2_P32119_70_LGCEVLGVSVDSQFTHLAWINTPR (UniProt P32119)
10 µM
  probe-labelled cysteine peptide fold change: 0.077
50 µM
  probe-labelled cysteine peptide fold change: 0.00587

## PPP6R3_Q5H9R7_467_IANCIVHSTDK (UniProt Q5H9R7)
10 µM
  probe-labelled cysteine peptide fold change: 0.0404
50 µM
  probe-labelled cysteine peptide fold change: -0.0255

## PPIP5K2_O43314_306_QTVCGFDLLR (UniProt O43314)
10 µM
  probe-labelled cysteine peptide fold change: -0.0383
50 µM
  probe-labelled cysteine peptide fold change: 0.256

## PPIG_Q13427_63_SCLFHR (UniProt Q13427)
10 µM
  probe-labelled cysteine peptide fold change: -0.0907
50 µM
  probe-labelled cysteine peptide fold change: -0.0397

## PREP_P48147_526_QNCFDDFQCAAEYLIK (UniProt P48147)
10 µM
  probe-labelled cysteine peptide fold change: 0.319
50 µM
  probe-labelled cysteine peptide fold change: 0.196

## PPP4R1_Q8TF05_645_HCAYSLPGVALTLGR (UniProt Q8TF05)
10 µM
  probe-labelled cysteine peptide fold change: -0.0962
50 µM
  probe-labelled cysteine peptide fold change: 0.138

## PPP2R1A_P30153_377_DECPEVR (UniProt P30153)
10 µM
  probe-labelled cysteine peptide fold change: 0.315
50 µM
  probe-labelled cysteine peptide fold change: 0.248

## PPP5C_P53041_208_KCAYQILVQVK (UniProt P53041)
10 µM
  probe-labelled cysteine peptide fold change: 0.045
50 µM
  probe-labelled cysteine peptide fold change: -0.16

## PPP1R3D_O95685_279_DYSLTCR (UniProt O95685)
10 µM
  probe-labelled cysteine peptide fold change: 0.48
50 µM
  probe-labelled cysteine peptide fold change: 0.213

## PRC1_O43663_80_ELNTLCSELHVEPFQEEGETTILQLEK (UniProt O43663)
10 µM
  probe-labelled cysteine peptide fold change: -0.0424
50 µM
  probe-labelled cysteine peptide fold change: 0.0399

## PPP2R5C_Q13362_50_QCCVLFDFVSDPLSDLK (UniProt Q13362)
10 µM
  probe-labelled cysteine peptide fold change: -0.104
50 µM
  probe-labelled cysteine peptide fold change: -0.04

## PPM1H_Q9ULR3_56_FPYGRPEFLGLSQDEVECSADHIARPILILK (UniProt Q9ULR3)
10 µM
  probe-labelled cysteine peptide fold change: 0.0254
50 µM
  probe-labelled cysteine peptide fold change: -0.319

## PREPL_Q4J6C6_227_CHDVYR (UniProt Q4J6C6)
10 µM
  probe-labelled cysteine peptide fold change: 0.00247
50 µM
  probe-labelled cysteine peptide fold change: 0.0105

## PPP6R1_Q9UPN7_216_LIEQIHPSKDENQHSNASQSLCDIIR (UniProt Q9UPN7)
10 µM
  probe-labelled cysteine peptide fold change: -0.143
50 µM
  probe-labelled cysteine peptide fold change: -0.425

## PPP1R8_Q12972_67_NPDLCDFTIDHQSCSR (UniProt Q12972)
10 µM
  probe-labelled cysteine peptide fold change: 0.282
50 µM
  probe-labelled cysteine peptide fold change: -0.231

## PPP2R1B_P30154_389_DECPDVR (UniProt P30154)
10 µM
  probe-labelled cysteine peptide fold change: 0.204
50 µM
  probe-labelled cysteine peptide fold change: 0.149

## PPT1_P50897_46_ALQHLDPPAPLPLVIWHGMGDSCCNPLSMGAIK (UniProt P50897)
10 µM
  probe-labelled cysteine peptide fold change: 0.0812
50 µM
  probe-labelled cysteine peptide fold change: -0.0671

## PPT1_P50897_128_CPSPPMINLISVGGQHQGVFGLPR (UniProt P50897)
10 µM
  probe-labelled cysteine peptide fold change: -0.046
50 µM
  probe-labelled cysteine peptide fold change: -0.182

## PPP2R2A_P63151_398_KVCASGK (UniProt P63151)
10 µM
  probe-labelled cysteine peptide fold change: -0.0547
50 µM
  probe-labelled cysteine peptide fold change: -0.0725
